Experimental data as given in article PMC3295762, “Gene Expression of the Tumour Suppressor LKB1 Is Mediated by Sp1, NF-Y and FOXO Transcription Factors”.

Sequences of proteins named here, by UniProt entry; tags and fusion partners are left off. A change or cut given only in a name is not applied to a line headed by its entry.
UniProt O43524: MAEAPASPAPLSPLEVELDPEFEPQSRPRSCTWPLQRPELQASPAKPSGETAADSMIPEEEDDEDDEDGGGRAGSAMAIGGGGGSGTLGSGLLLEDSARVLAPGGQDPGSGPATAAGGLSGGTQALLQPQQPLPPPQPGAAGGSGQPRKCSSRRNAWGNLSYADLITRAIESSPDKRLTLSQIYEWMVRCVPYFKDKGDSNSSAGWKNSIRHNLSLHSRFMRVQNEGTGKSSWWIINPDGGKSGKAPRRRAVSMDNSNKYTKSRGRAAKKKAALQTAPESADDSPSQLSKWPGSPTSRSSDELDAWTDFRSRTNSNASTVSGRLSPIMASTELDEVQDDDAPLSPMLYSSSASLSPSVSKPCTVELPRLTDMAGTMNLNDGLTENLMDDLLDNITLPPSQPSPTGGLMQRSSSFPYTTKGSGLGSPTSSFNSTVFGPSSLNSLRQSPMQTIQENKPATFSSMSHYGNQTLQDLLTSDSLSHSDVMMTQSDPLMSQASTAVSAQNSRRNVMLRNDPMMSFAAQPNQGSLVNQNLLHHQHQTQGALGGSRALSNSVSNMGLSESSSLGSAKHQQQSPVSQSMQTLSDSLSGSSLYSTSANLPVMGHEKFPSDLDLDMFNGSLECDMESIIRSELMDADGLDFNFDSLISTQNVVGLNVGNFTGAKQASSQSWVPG
UniProt P98177, whole entry T32A/S197A/S262A: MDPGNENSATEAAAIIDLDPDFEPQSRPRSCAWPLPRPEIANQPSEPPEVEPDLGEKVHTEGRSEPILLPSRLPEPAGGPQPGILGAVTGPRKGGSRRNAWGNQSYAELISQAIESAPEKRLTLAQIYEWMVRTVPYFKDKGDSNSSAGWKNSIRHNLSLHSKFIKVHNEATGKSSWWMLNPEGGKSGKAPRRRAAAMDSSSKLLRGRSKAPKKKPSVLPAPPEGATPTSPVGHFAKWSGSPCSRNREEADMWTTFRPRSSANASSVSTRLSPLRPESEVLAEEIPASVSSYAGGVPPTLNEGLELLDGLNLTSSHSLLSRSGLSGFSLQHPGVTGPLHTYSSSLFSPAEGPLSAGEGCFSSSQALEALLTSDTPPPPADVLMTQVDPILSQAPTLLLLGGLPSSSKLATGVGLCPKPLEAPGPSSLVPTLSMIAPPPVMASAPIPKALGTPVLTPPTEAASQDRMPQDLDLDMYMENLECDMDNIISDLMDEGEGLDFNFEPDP

Tests used:
[1] = biological target: FOXO3 (UniProt O43524); test: EMSA; conditions: 500-fold mutant competitor N2 present; EMSA: 10% glycerol, 12 mM HEPES pH 7.9, 4 mM Tris-HCl pH 7.9, 60 mM KCl, 1 mM DTT, 0.6 mg/ml BSA, 0.5 ug poly(dI-dC), 20 ul, 30 min at 25 C; supershift 1 h at 4 C; protein in a lysate after overexpression; label: 32P
[2] = system: GST; test: EMSA; conditions: EMSA: 10% glycerol, 12 mM HEPES pH 7.9, 4 mM Tris-HCl pH 7.9, 60 mM KCl, 1 mM DTT, 0.6 mg/ml BSA, 0.5 ug poly(dI-dC), 20 ul, 30 min at 25 C; supershift 1 h at 4 C; recombinant protein; label: 32P
[3] = system: FOXA2 (HNF-3beta); test: EMSA; conditions: 500-fold mutant competitor N2 present; EMSA: 10% glycerol, 12 mM HEPES pH 7.9, 4 mM Tris-HCl pH 7.9, 60 mM KCl, 1 mM DTT, 0.6 mg/ml BSA, 0.5 ug poly(dI-dC), 20 ul, 30 min at 25 C; supershift 1 h at 4 C; protein in a lysate after overexpression; label: 32P
[4] = biological target: FOXO4 (UniProt P98177); test: EMSA; conditions: 500-fold mutant competitor N2 present; EMSA: 10% glycerol, 12 mM HEPES pH 7.9, 4 mM Tris-HCl pH 7.9, 60 mM KCl, 1 mM DTT, 0.6 mg/ml BSA, 0.5 ug poly(dI-dC), 20 ul, 30 min at 25 C; supershift 1 h at 4 C; protein in a lysate after overexpression; label: 32P
[5] = biological target: FOXO4 A3 T32A,S197A,S262A (UniProt P98177); test: EMSA supershift; conditions: 500-fold mutant competitor N2 present; EMSA: 10% glycerol, 12 mM HEPES pH 7.9, 4 mM Tris-HCl pH 7.9, 60 mM KCl, 1 mM DTT, 0.6 mg/ml BSA, 0.5 ug poly(dI-dC), 20 ul, 30 min at 25 C; supershift 1 h at 4 C; protein in a lysate after overexpression; label: 32P

Does “GGGGAGGGAGGTAAACAAGATGGCGGC (double strand) [LKB1 FOXO site oligo WT]” bind [1]?
Result: binds

Does “GGGGAGGGAGGTAAACAAGATGGCGGC (double strand) [LKB1 FOXO site oligo WT]” bind [2]?
Result: no binding

Does “GGGGAGGGAGGTAAACAAGATGGCGGC (double strand) [LKB1 FOXO site oligo WT]” bind [3]?
Result: binds

Does “GGGGAGGGAGGTAAACAAGATGGCGGC (double strand) [LKB1 FOXO site oligo WT]” bind [4]?
Result: binds

Does “GGGGAGGGAGGTAAACAAGATGGCGGC (double strand) [LKB1 FOXO site oligo WT]” bind [5]?
Result: binds

For at least one entry, the source does not settle the construct or the ends of the probe. For some assays here: No signal at the amounts used counts as a negative. For some assays here: Results from cells or extracts need not show a direct contact.
